# In PubChem BioAssay (EPA / NIEHS):
# The chains behind the UniProt entries cited, without tags or fusion partners. Where a name states a change or a piece, a line headed by the entry shows the natural chain unless it says otherwise.
# UniProt P56817: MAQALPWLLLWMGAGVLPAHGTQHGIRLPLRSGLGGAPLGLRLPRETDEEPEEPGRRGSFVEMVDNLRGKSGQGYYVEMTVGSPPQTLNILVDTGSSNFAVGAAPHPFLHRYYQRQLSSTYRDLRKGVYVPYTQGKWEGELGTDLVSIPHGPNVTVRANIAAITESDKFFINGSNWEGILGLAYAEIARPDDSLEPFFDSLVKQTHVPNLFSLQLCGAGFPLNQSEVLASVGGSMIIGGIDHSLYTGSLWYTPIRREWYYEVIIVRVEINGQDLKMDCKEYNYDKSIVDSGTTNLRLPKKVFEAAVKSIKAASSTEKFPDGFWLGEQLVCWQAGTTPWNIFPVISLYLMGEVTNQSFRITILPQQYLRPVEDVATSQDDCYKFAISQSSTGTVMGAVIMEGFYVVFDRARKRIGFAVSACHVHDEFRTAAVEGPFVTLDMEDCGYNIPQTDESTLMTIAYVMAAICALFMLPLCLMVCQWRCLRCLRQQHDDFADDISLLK
# UniProt P31749: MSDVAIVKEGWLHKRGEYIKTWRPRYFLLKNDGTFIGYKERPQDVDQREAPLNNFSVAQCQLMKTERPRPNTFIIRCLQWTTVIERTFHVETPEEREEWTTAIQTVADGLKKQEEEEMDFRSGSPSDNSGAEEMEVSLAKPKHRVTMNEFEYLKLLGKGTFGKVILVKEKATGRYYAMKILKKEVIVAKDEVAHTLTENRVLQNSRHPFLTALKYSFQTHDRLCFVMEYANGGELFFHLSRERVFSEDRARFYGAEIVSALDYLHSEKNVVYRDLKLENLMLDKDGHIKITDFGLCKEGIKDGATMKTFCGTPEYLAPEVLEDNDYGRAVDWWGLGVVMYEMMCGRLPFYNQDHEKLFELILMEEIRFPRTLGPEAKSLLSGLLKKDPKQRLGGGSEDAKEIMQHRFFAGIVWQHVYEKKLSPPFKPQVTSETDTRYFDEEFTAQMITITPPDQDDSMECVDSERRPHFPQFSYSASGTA
# UniProt P48730: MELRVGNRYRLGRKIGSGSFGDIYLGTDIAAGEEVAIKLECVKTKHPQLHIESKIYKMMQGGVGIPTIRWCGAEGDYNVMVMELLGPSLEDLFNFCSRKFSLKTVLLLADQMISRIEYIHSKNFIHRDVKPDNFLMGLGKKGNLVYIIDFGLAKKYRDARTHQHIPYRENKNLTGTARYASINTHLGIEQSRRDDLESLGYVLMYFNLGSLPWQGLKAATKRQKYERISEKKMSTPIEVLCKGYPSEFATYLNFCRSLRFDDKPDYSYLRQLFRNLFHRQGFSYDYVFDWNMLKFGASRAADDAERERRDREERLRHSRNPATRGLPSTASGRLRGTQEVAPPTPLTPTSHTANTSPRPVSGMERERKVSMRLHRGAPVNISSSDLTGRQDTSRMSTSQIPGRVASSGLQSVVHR
# UniProt P31751: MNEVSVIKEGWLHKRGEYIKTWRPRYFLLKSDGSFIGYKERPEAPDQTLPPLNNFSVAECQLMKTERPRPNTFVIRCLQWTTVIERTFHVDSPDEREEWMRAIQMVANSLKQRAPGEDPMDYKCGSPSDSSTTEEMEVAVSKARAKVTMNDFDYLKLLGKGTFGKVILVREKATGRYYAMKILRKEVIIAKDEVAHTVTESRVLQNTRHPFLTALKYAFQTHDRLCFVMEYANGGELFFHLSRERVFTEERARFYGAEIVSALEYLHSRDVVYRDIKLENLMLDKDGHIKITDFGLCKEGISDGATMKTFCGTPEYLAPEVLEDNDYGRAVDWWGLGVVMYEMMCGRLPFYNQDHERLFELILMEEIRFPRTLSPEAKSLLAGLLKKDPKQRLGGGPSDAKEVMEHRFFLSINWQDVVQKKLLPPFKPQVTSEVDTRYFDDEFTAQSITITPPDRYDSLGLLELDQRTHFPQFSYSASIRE
# UniProt P24666: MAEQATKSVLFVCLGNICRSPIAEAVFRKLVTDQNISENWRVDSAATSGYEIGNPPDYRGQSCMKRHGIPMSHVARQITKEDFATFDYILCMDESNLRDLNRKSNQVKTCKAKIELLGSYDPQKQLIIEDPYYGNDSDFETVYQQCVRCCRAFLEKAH
# UniProt P51878: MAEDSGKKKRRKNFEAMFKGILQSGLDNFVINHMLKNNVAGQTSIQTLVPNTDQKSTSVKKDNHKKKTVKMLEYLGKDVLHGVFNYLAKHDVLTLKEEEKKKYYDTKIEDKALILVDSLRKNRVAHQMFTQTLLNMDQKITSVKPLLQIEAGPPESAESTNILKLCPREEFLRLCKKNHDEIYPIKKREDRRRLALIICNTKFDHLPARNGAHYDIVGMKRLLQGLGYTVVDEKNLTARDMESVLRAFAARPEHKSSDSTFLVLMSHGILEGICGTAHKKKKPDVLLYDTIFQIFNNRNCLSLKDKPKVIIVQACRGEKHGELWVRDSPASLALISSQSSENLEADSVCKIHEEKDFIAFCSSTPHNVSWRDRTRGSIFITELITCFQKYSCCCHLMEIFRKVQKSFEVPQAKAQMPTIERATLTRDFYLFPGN
# UniProt P42574: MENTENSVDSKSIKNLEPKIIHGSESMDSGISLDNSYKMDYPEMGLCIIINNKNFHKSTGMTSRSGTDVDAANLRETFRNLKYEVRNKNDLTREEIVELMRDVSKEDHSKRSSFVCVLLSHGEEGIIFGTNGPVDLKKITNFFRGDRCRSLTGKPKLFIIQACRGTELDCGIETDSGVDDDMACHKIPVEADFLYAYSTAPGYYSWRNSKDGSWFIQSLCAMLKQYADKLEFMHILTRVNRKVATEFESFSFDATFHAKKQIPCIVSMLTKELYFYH
# UniProt P49662: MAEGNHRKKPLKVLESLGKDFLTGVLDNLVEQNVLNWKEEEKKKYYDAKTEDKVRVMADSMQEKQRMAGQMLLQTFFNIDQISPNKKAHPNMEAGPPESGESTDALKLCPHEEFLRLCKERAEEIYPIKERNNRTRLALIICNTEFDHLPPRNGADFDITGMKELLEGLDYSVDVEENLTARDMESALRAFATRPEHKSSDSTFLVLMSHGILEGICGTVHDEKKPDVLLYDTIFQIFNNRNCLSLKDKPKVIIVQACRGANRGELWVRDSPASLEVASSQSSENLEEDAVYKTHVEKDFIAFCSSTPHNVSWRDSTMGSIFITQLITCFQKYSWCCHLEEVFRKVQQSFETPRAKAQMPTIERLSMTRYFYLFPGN
# UniProt Q14790: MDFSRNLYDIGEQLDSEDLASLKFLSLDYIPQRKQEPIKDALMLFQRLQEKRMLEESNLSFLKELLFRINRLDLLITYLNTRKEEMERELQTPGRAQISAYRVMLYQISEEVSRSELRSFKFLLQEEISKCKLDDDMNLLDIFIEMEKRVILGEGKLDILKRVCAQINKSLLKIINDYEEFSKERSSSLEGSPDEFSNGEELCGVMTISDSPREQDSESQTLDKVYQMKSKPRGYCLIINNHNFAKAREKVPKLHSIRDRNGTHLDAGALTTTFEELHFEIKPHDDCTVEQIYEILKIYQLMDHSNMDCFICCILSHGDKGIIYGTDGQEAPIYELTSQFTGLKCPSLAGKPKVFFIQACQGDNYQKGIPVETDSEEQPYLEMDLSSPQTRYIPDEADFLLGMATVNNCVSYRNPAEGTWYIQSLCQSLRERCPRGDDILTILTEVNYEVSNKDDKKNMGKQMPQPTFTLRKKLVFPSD
# This list was built around the results that the source calls inconclusive (neither active nor inactive); the mix of calls is not that of the screen. For part of these data: A potency beside an inconclusive call is a rough fit, not a confirmed value. Active and inactive are the calls of the source. The calls were made as follows: active = hit-call score of the fitted dose curve at least 0.9, where 1 is the maximum; inconclusive = response in the unintended direction; inactive = score below 0.9.
# Columns and labels:
# [1] = target: human Beta-secretase (BACE), BACE1 (gene 23621) (UniProt P56817); experiment: NVS_ENZ_hBACE: NovaScreen (NVS) Enzymatic Assay for human Beta-secretase (BACE) (AID 2283140);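 also: hits are inhibitors that reduce fluorescent substrate signal versus DMSO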
# Outline: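 Fluorescence intensity read-out of protease activity defines this endpoint; signal loss relative to DMSO baseline marks inhibition. Recombinant enzyme from SF9 cells, cell-free format, 1 h exposure. Single-concentration duplicate screen (25 uM) precedes concentration-series follow-up.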
# [2] = target: human AKT serine/threonine Kinase 1 (AKT1), AKT1 (gene 207) (UniProt P31749); experiment: NVS_ENZ_hAKT1: NovaScreen (NVS) Enzymatic Assay for human AKT serine/threonine Kinase 1 (AKT1) (AID 2283138)
# Outline: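 Compounds were first tested in duplicate at 25 uM, and those passing a threshold such as 30% inhibition were run in concentration-response to a maximum of 50 uM. Enzyme activity was measured after 1 h by fluorescence following substrate/product mobility-shift separation.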
# CDK2 (gene 1017) = CDK2 (gene 1017) (UniProt P24941); experiment: NVS_ENZ_hCDK2: NovaScreen (NVS) Enzymatic Assay for human Cyclin-Cependent Kinase 2 (CDK2) (AID 2283144)
# Outline: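 Compounds screened in duplicate at 25 uM, then in singleton concentration-response to a maximum of 50 uM, against recombinant CDK2; kinase activity read 1 hr after dosing by fluorescence with mobility-shift separation of substrate and product.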
# [3] = target: human Casein Kinase 1-delta (CK1D), CSNK1D (gene 1453) (UniProt P48730); experiment: NVS_ENZ_hCK1D: NovaScreen (NVS) Enzymatic Assay for human Casein Kinase 1-delta (CK1D) (AID 2283148)
# Outline: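 Recombinant human CK1-delta, cell-free; fluorescent substrate with electrophoretic mobility-shift separation of product, read 1 h after dosing. Single 25 uM duplicate screen, then concentration-response up to 50 uM; loss of signal vs DMSO.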
# [4] = target: human AKT serine/threonine Kinase 2 (AKT2), AKT2 (gene 208) (UniProt P31751); experiment: NVS_ENZ_hAKT2: NovaScreen (NVS) Enzymatic Assay for human AKT serine/threonine Kinase 2 (AKT2) (AID 2283141)
# Outline: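 Cell-free fluorescence/electrophoretic mobility shift readout of recombinant human AKT2 activity, 1 h after chemical dosing. Duplicate primary screen at 25 uM, then singleton concentration-response up to 50 uM; loss of signal versus DMSO baseline.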
# [5] = target: human Acid Phosphatase 1 (ACP1), ACP1 (gene 52) (UniProt P24666); experiment: NVS_ENZ_hACP1: NovaScreen (NVS) Enzymatic Assay for human Acid Phosphatase 1 (ACP1) (AID 2283136)
# Protocol: NVS_ENZ_hACP1 is a biochemical, single-readout assay that uses extracted gene-proteins from SF9 in a cell-free assay. Measurements were taken 1.5 hours after chemical dosing in a 384-well plate.NVS_ENZ_hACP1 is one of one assay component(s) measured or calculated from the NVS_ENZ_hACP1 assay. It is designed to make measurements of enzyme activity, a form of enzyme reporter, as detected with fluorescence intensity signals by Fluorescence and electrophoretic mobility shift technology.Data from the assay component NVS_ENZ_hACP1 was analyzed into 1 assay endpoint. This assay endpoint, NVS_ENZ_hACP1, was analyzed in the positive analysis fitting direction relative to DMSO as the negative control and baseline of activity. Using a type of enzyme reporter, loss-of-signal activity can be used to understand changes in the enzymatic activity as they relate to the gene ACP1. Furthermore, this assay endpoint can be referred to as a primary readout, because this assay has produced multiple assay endpoints where this one serves a enzymatic activity function. To generalize the intended target to other relatable targets, this assay endpoint is annotated to the phosphatase intended target family, where the subfamily is acid phosphatase.
# Binding assays used specific radioligands (tritiated, iodinated) with non-radioactive competitive displacement ligands in agonist or antagonist protocols (as indicated) and various reference compounds and inhibitors to titrate specific binding to receptors and transporters. Most enzyme assays (CYPs, kinases, phosphatases, proteases, HDACs) used recombinant protein and specific substrates (fluorescence mostly, some colorimetric and radioactive) and inhibitors, followed by a biochemical separation of substrate and product. All assays for the biochemical HTS were initially run in duplicate at a single concentration (10 uM for CYP450 assays and 25 uM for all others). […] Each assay was run with positive and negative controls, and concurrent controls on every plate. The follow-up (secondary) screen tested active chemical-pairs in concentration series, as well as a few additional assays not tested in the primary screen, some selected negative inactives, and several cases re-run in the concentration series for confirmatory purposes.
# [6] = target: human Caspase 5 (CASP5), CASP5 (gene 838) (UniProt P51878); experiment: NVS_ENZ_hCASP5: NovaScreen (NVS) Enzymatic Assay for human Caspase 5 (CASP5) (AID 2283137)
# Outline: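 Chemicals were first tested in duplicate at 25 uM against recombinant caspase 5 from E. coli. Activity was read by fluorescence intensity 2 hours after dosing. Those passing a preset inhibition threshold were retested in singleton concentration-response up to 50 uM.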
# Caspase-3 (Homo sapiens) = Caspase-3 (Homo sapiens) (UniProt P42574); experiment: NVS_ENZ_hCASP3: NovaScreen (NVS) Enzymatic Assay for human Caspase 3 (CASP3) (AID 2283139)
# Protocol: NVS_ENZ_hCASP3 is a biochemical, single-readout assay that uses extracted gene-proteins from E. coli in a cell-free assay. Measurements were taken 1 hour after chemical dosing in a 96-well plate.NVS_ENZ_hCASP3 is one of one assay component(s) measured or calculated from the NVS_ENZ_hCASP3 assay. It is designed to make measurements of enzyme activity, a form of enzyme reporter, as detected with fluorescence intensity signals by Fluorescence technology.Data from the assay component NVS_ENZ_hCASP3 was analyzed into 1 assay endpoint. This assay endpoint, NVS_ENZ_hCASP3, was analyzed in the positive analysis fitting direction relative to DMSO as the negative control and baseline of activity. […] Furthermore, this assay endpoint can be referred to as a primary readout, because this assay has produced multiple assay endpoints where this one serves a enzymatic activity function. […]
# Binding assays used specific radioligands (tritiated, iodinated) with non-radioactive competitive displacement ligands in agonist or antagonist protocols (as indicated) and various reference compounds and inhibitors to titrate specific binding to receptors and transporters. Most enzyme assays (CYPs, kinases, phosphatases, proteases, HDACs) used recombinant protein and specific substrates (fluorescence mostly, some colorimetric and radioactive) and inhibitors, followed by a biochemical separation of substrate and product. […]
# [7] = target: human Caspase 4 (CASP4), CASP4 (gene 837) (UniProt P49662); experiment: NVS_ENZ_hCASP4: NovaScreen (NVS) Enzymatic Assay for human Caspase 4 (CASP4) (AID 2283143)
# Outline: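 Compounds were first tested in duplicate at 25 uM, and hits were titrated singly to a 50 uM maximum. Recombinant protease from E. coli was read by fluorescence 2 h post-dose, and activity loss was fitted against the DMSO baseline.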
# [8] = target: human Caspase 8 (CASP8), CASP8 (gene 841) (UniProt Q14790); experiment: NVS_ENZ_hCASP8: NovaScreen (NVS) Enzymatic Assay for human Caspase 8 (CASP8) (AID 2283146)
# Outline: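 The primary screen tested compounds in duplicate at a single 25 uM concentration, with actives followed up in concentration series. Activity of recombinant (E. coli) protease was measured by fluorescence 1 h post-dose, as signal loss against DMSO.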
smiles,measurement,setting,value
N#Cc1ccccc1,outcome,[1],inactive
CCCC=O,AC50,[1],inconclusive: 25 µM
CC(C)c1ccc(C(=O)N=C(N)N)cc1S(C)(=O)=O,AC50,[2],inconclusive: 18.6 µM
Cc1nc(-c2ccccn2)ncc1C(=O)Nn1cc(C)c2cc(F)ccc21,AC50,[2],inconclusive: 5.39 µM
same,AC50,CDK2 (gene 1017),inconclusive: 25 µM
same,AC50,[3],inconclusive: 0.0922 µM
CN1CCC[C@H]1c1cccnc1,AC50,[2],inconclusive: 25 µM
same,AC50,[1],inconclusive: 25 µM
CCC(C)c1ccccc1O (centres undefined),outcome,[2],inactive
same,AC50,[4],inconclusive: 25 µM
CC(C)=CCC/C(C)=C\CO,AC50,[2],inconclusive: 1.95 µM
NC(=O)NO,AC50,[2],active: 16.5 µM
same,AC50,[4],inconclusive: 25 µM
CN(C)c1ccc(N=NS(=O)(=O)O)cc1,AC50,[5],inconclusive: 5.68 µM
same,AC50,[2],inconclusive: 23.8 µM
OCCN1CCOCC1,AC50,[1],inconclusive: 0.317 µM
Nc1cccc2c(N)cccc12,AC50,[2],active: 3.13 µM
CC(C)(N=C=O)c1cccc(C(C)(C)N=C=O)c1,outcome,[1],inactive
Cc1ccc([N+](=O)[O-])cc1N,AC50,[2],inconclusive: 25 µM
same,AC50,[4],inconclusive: 25 µM
CCOC(=O)CCC(=O)OCC,AC50,[2],inconclusive: 9.83 µM
same,AC50,[1],inconclusive: 1.3 µM
CO[C@H]1/C=C/O[C@@]2(C)Oc3c(C)c(O)c4c(O)c(c(/C=N/N5CCN(C)CC5)c(O)c4c3C2=O)NC(=O)/C(C)=C\C=C\[C@H](C)[C@H](O)[C@@H](C)[C@@H](O)[C@@H](C)[C@H](OC(C)=O)[C@@H]1C,AC50,[2],active: 25.1 µM
NC(=O)N1C(=O)C(C(=O)c2cc(Cl)cs2)c2cc(F)c(Cl)cc21 (centres undefined),outcome,[6],inactive
CC(O)CN(CCN(CC(C)O)CC(C)O)CC(C)O (centres undefined),AC50,[2],inconclusive: 25 µM
O=C(O)c1ccc([N+](=O)[O-])cc1,AC50,[5],inconclusive: 25 µM
O=C1NC(=O)C(c2ccccc2)(c2ccccc2)N1,AC50,[2],inconclusive: 25 µM
CCCCCCCCCCCCc1ccccc1S(=O)(=O)O,AC50,[2],active: 29.1 µM
same,AC50,[4],active: 40.2 µM
same,AC50,[3],active: 17.4 µM
CCCCCCC(=O)OCC,AC50,Caspase-3 (Homo sapiens),inconclusive: 25 µM
Cc1ccc(C)c(O)c1,AC50,[2],inconclusive: 4.06 µM
CC(C)(C)c1cc(O)c(C(C)(C)C)cc1O,outcome,[2],inactive
CC1(C)NC(=O)NC1=O,AC50,[2],inconclusive: 6.83 µM
same,outcome,[4],inactive
FC(F)(F)C(F)(F)C(F)(F)C(F)(F)C(F)(F)C(F)(F)CCI,AC50,[2],inconclusive: 12.5 µM
same,AC50,[3],inconclusive: 0.0534 µM
COC(=O)OC,AC50,[1],inconclusive: 25 µM
CC(=O)N(C)C,AC50,[1],inconclusive: 12.1 µM
COc1cc(S(=O)(=O)O)c(C)cc1N=Nc1c(O)ccc2cc(S(=O)(=O)O)ccc12,AC50,Caspase-3 (Homo sapiens),active: 15.3 µM
same,AC50,[7],active: 25 µM
same,AC50,[8],inconclusive: 25 µM
CC1(C)CC(N=C=O)CC(C)(CN=C=O)C1 (centres undefined),outcome,[6],inactive
same,AC50,[4],active: 6.21 µM
same,outcome,[8],inactive
C1CCC(SSC2CCCCC2)CC1,AC50,[5],inconclusive: 0.576 µM
CC(C)CCCCCCCOC(=O)CCCCC(=O)OCCCCCCCC(C)C,AC50,[2],inconclusive: 44.8 µM
same,outcome,[4],inactive
Cc1[nH]cnc1C[C@H]1CCc2c(C)c3ccccc3n2C1=O,AC50,[2],inconclusive: 0.0783 µM
same,AC50,[3],active: 13.9 µM
Nc1nc2ncc(CNc3ccc(C(=O)N[C@@H](CCC(=O)O)C(=O)O)cc3)nc2c(=O)[nH]1,outcome,[5],inactive
Cc1ccc(S(=O)(=O)NC(=O)NN2CCCCCC2)cc1,AC50,[2],inconclusive: 6.71 µM
same,outcome,[4],inactive
CCCCOC(=O)c1ccccc1,AC50,[2],inconclusive: 25 µM

# Already shown: entries from further up.
smiles,measurement,setting,value
CC1(C)NC(=O)NC1=O,AC50,[2],inconclusive: 6.83 µM
same,outcome,[4],inactive
FC(F)(F)C(F)(F)C(F)(F)C(F)(F)C(F)(F)C(F)(F)CCI,AC50,[2],inconclusive: 12.5 µM
same,AC50,[3],inconclusive: 0.0534 µM
COC(=O)OC,AC50,[1],inconclusive: 25 µM
CC(=O)N(C)C,AC50,[1],inconclusive: 12.1 µM
COc1cc(S(=O)(=O)O)c(C)cc1N=Nc1c(O)ccc2cc(S(=O)(=O)O)ccc12,AC50,Caspase-3 (Homo sapiens),active: 15.3 µM
same,AC50,[7],active: 25 µM
same,AC50,[8],inconclusive: 25 µM
CC1(C)CC(N=C=O)CC(C)(CN=C=O)C1 (centres undefined),outcome,[6],inactive
